At least one compound was matched to its structure with a doubt left.
Test system: HUVEC (human umbrical vein endothelial cell)
Assay: Test of endothelial cell proliferation (cell count)
Type: cell-based
Settings: drug alone, increasing concentration, two days, cell count (FIGS. 5, 8 to 10)
Protocol: An HUVEC (human umbrical vein endothelial cell, Cambrex, US) cell line at 3-10 passages was incubated in an EGM2 (endothelial growth medium, Cambrex, US) culture medium under a standard culture condition (O2 95%, 5% CO2, 37° C., 100% RH). 1×10^4 Cells was divided into a 24-well plate, and cultured for a day so that the cells can be fixed into the 24-well plate. In order to allow the cells to enter interphase, the cells were washed three times with PBS, and the EGM2 culture medium was replaced by EBM2 (endothelial basal medium, Cambrex) including 1% fetal bovine serum and 1% antibiotic-antimycotic (Gibco, US), and the cells were incubated for a day. After the used medium was removed, an EBM2 including 1% fetal bovine serum and 1% antibiotic-antimycotic (Gibco) solution supplemented with a drug was added to the cells, and the cell solution was then cultured for two days. After the cell culture, morphology of the cells was observed under a microscope. Then, the cells were detached from the plate using trypsin, and counted using a hemacytometer. 0.1% DMSO dissolved in saline was used as the vehicle control.

Question: With CO[C@H]1C[C@@H]2CC[C@@H](C)[C@@](O)(O2)C(=O)C(=O)N2CCCC[C@H]2C(=O)O[C@H]([C@H](C)C[C@@H]2CC[C@@H](O)[C@H](OC)C2)CC(=O)[C@H](C)/C=C(\C)[C@@H](O)[C@@H](OC)C(=O)[C@H](C)C[C@H](C)/C=C/C=C/C=C/1C [rapamycin, reference compound] as the compound, how does the endothelial cell proliferation read?
Answer: inhibit the proliferation of HUVEC
